Laboratory results: PubChem BioAssay AID504791 (Drosophila RNAi Screening Center, 2011)

Aim: 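Genes of the fly required for silencing by miRNA, siRNA or endo-siRNA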 (primary screen)
Cell system: Drosophila S2-derived reporter cells
Reagents: long dsRNA against Drosophila genes, about 150-250 ng dsRNA per well (siRNA assay); about 80-120 ng (miRNA assay)
Timing: about 5 days (siRNA assay); about 4 days (miRNA assay)
Treatment: copper sulfate induction of reporters: 25 µM (siRNA assay); 200 mM stated (miRNA assay), 1-2 days before reading
Measured: 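Per-well ratio of Renilla over firefly light, expressed relative to that plate's average ratio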
Direction: siRNA reporter hit score: higher = 3 marks a strong hit with raised ratio; -3 a strong hit with lowered ratio
Rule for the call: 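First-pass picks had plate-scaled ratios over 1.5 for the siRNA assay, over 1.6 for the miRNA assay, or under 0.6; two distinct dsRNAs had to score alike on retest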
The screen tested about 23,000 reagents; this is a random part of those that have a named target and a result. In the full data, 199 (0.86%) were called active. 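Plate-scaled ratios behind the calls are not deposited; printed light signals are raw; many rows marked increased or decreased are still called inactive.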 A number with no mark means an inactive call. Further read-outs or replicates are left out here.

| gene knocked down | DRSC id | siRNA reporter hit score | miRNA reporter change | stable assay Renilla, run 1 (luminescence) |
| --- | --- | --- | --- | --- |
| CG10591 | DRSC09748 | – | – | 7830 |
| Frmd5 | DRSC02802 | – | – | 6638 |
| CG31031 (retired record) | DRSC13964 | – | – | 5312 |
| Set1 | DRSC20930 | -3 | – | 7250 |
| Set1 | DRSC20931 | – | – | 7460 |
| Prosalpha4T1 | DRSC16800 | – | – | 7036 |
| VGAT | DRSC07160 | – | – | 6239 |
| CG3748 | DRSC02716 | – | – | 9045 |
| exd | DRSC20330 | – | – | 4243 |
| SelT | DRSC02732 | – | – | 9811 |
| CG14830 | DRSC08876 | – | – | 4543 |
| CG14830 | DRSC10200 | – | – | 6579 |
| Stip1 | DRSC00756 | – | – | 13213 |
| CG9967 | DRSC00742 | – | – | 10736 |
| Npc2h | DRSC14297 | – | – | 5335 |
| Spc105R | DRSC11663 | – | reporter ratio raised past the hit cutoff | 7484 |
| CG46385 | DRSC06425 | – | – | 6810 |
| CG46385 | DRSC06557 | – | – | 7262 |
| Oga | DRSC15901 | – | – | 8913 |
| CG7298 | DRSC10802 | – | – | 9236 |
| CG31406 | DRSC12777 | – | – | 5419 |
| Yp1 | DRSC18731 | – | – | 4224 |
| CG12817 | DRSC14555 | – | – | 6023 |
| Sb | DRSC16851 | – | – | 8546 |
| CG2246 | DRSC15433 | – | – | 4811 |
| CG15126 | DRSC06548 | – | – | 5071 |
| CG14854 | DRSC14978 | – | – | 7940 |
| CG15233 | DRSC04967 | – | – | 13523 |
| CG17732 | DRSC10283 | – | – | 7099 |
| Hap40 | DRSC20085 | – | – | 7682 |
| CG17896 | DRSC18502 | – | – | 5572 |
| CG30383 | DRSC05062 | – | – | 6007 |
| Cog4 | DRSC03057 | – | – | 15291 |
| Eig71Eh | DRSC11155 | – | – | 7607 |

Targets listed so far whose gene name begins with E or e:
| gene knocked down | DRSC id | siRNA reporter hit score | miRNA reporter change | stable assay Renilla, run 1 (luminescence) |
| --- | --- | --- | --- | --- |
| exd | DRSC20330 | – | – | 4243 |
| Eig71Eh | DRSC11155 | – | – | 7607 |
